Results as given in publication PMC12477566.
For at least one entry, the source does not settle the construct or the ends of the probe. For part of these data: At least one verdict rests on a figure or table, not on a statement of the authors.

How the values were obtained:
[1] = test system: SmD1 + SmD2-EGF + SmG + SmE + SmF + SmD3 + SmB1-95; assay: size exclusion chromatography, SDS-PAGE; settings: complex purified at 4 °C, recombinant protein
[2] = test system: SmD1 + SmD2-EGF + SmG + SmE + SmF + SmD3 + SmB1-95-H5E; assay: size exclusion chromatography, SDS-PAGE; settings: complex purified at 4 °C, recombinant protein
[3] = test system: SmD1 + SmD2 + SmG + SmE + SmF + SmD3 + SmB1-95; assay: size exclusion chromatography, SDS-PAGE; settings: complex purified at 4 °C, recombinant protein
[4] = test system: SmD1 + SmD2-EGF + SmG + SmE + SmF + SmD3 + SmB1-95-H5E; assay: size exclusion chromatography with SDS-PAGE and Urea-PAGE; settings: SmiRNP-EGF-H5E; complex purified at 4 °C; recombinant protein
[5] = test system: SmD1 + SmD2-EGF + SmG + SmE + SmF + SmD3 + SmB1-95-H5E; assay: nuclease protection, Urea-PAGE; settings: mouse serum, up to 18 h; complex purified at 4 °C; recombinant protein
[6] = test system: SmD1 + SmD2-FGF1 + SmG + SmE + SmF + SmD3 + SmB1-95-H5E; assay: in vitro reconstitution; settings: SmiRNP-FGF1-H5E; complex purified at 4 °C; recombinant protein
[7] = test system: SmD1 + SmD2-VEGF-A + SmG + SmE + SmF + SmD3 + SmB1-95-H5E; assay: in vitro reconstitution; settings: SmiRNP-VEGF-A-H5E; complex purified at 4 °C; recombinant protein

Measured: binding result

CAAUUUUUGAUCUGAAUUAGCUGUAUCGUCAAGGUU / CCUUGACGAUACAGCUAAUUCAGA [FAM-siKRAS]
binds: [1]; FAM-SmiRNP-EGF, label: 5'-FAM on antisense | [2]; FAM-SmiRNP-EGF-H5E, label: 5'-FAM on antisense | [3]; FAM-SmiRNP, label: 5'-FAM on antisense

CAAUUUUUGAUCUGAAUUAGCUGUAUCGUCAAGGUU / CCUUGACGAUACAGCUAAUUCAGA [siKRAS]
binds: [4] | [5] | [1]; SmiRNP-EGF | [3]; SmiRNP | [6] | [7]

CAAUUUUUGAUUAAUAGGUAGUGGCAUACGCUUCUU / GAAGCGUAUGCCACUACCUAUUAA [siNC]
binds: [2]; SmiRNP-EGF-H5E siNC

CAAUUUUUGAUCUGAAUUAGCUGUAUCGUCAAGGUU / CCUUGACGAUACAGCUAAUUCAGA [Cy5.5-siKRAS]
binds: [2]; Cy5.5-SmiRNP-EGF-H5E, label: 5'-Cy5.5 on antisense | [3]; Cy5.5-SmiRNP, label: 5'-Cy5.5 on antisense
